Source: the supplement of paper PMC10849652
This is one part of the list.

By UniProt entry, the sequences of proteins in these tests, tags left out. Where a name states a change or a piece, a line headed by the entry shows the natural chain unless it says otherwise.
UniProt Q9H2J4: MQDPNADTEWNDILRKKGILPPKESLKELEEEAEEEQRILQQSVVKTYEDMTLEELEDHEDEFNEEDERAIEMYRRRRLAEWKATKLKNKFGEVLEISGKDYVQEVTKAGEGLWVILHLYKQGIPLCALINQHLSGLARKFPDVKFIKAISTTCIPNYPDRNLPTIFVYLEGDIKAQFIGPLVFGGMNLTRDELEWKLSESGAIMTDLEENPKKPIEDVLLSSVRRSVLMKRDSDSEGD
UniProt Q6ZW49, whole entry, looked up: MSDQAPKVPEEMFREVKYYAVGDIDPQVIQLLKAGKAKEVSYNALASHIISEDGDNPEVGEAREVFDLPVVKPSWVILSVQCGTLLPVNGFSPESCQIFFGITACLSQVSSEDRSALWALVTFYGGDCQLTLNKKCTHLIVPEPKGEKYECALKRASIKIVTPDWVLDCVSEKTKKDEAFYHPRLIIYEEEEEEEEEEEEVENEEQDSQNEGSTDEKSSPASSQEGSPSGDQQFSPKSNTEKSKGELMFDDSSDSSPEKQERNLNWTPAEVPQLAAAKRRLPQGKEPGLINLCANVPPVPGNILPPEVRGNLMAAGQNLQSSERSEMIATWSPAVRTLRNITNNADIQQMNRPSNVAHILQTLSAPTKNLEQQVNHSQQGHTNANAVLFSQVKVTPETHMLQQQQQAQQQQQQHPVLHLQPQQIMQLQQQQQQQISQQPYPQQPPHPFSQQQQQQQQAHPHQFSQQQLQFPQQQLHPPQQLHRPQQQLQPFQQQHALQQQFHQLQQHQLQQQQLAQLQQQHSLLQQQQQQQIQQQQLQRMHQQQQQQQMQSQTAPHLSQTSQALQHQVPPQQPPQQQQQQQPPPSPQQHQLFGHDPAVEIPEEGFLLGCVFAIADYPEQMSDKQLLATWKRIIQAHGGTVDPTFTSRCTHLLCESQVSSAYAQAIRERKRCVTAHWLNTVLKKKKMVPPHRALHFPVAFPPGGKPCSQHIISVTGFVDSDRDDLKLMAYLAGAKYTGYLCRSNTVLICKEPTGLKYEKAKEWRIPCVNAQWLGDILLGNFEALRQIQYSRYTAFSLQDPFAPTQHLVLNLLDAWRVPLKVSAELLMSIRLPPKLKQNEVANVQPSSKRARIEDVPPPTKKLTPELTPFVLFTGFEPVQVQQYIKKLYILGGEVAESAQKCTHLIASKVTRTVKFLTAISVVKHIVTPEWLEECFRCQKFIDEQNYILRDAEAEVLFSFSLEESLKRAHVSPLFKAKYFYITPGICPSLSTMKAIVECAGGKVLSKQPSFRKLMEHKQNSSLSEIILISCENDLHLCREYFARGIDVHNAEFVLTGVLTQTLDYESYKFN
UniProt P35227: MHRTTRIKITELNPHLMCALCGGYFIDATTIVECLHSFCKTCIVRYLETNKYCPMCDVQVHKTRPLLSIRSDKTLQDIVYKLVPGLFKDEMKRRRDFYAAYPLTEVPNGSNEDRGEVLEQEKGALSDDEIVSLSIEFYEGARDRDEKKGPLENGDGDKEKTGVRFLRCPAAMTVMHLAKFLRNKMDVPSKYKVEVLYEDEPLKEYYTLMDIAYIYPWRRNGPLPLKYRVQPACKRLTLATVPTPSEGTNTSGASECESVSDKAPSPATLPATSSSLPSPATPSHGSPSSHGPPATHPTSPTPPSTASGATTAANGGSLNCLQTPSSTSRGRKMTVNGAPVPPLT
UniProt Q9H074: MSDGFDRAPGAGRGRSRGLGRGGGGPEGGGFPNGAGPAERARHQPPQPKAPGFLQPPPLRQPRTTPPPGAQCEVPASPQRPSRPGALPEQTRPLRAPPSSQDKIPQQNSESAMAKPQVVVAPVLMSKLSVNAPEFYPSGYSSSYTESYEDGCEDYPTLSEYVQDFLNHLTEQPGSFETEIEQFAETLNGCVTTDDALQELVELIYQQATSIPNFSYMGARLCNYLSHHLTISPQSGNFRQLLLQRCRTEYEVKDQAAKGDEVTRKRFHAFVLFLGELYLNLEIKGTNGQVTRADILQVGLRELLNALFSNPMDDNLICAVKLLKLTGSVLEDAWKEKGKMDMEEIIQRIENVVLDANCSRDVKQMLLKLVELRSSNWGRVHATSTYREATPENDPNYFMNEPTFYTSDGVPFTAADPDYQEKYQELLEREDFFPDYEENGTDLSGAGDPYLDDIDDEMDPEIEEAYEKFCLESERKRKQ
UniProt Q9UKL6: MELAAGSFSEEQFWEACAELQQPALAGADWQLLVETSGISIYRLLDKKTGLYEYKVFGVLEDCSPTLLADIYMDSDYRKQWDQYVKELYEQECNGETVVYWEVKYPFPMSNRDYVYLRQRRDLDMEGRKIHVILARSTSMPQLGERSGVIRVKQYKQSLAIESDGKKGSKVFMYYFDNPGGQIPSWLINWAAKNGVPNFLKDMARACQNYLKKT
UniProt Q8NBP7, whole entry, looked up: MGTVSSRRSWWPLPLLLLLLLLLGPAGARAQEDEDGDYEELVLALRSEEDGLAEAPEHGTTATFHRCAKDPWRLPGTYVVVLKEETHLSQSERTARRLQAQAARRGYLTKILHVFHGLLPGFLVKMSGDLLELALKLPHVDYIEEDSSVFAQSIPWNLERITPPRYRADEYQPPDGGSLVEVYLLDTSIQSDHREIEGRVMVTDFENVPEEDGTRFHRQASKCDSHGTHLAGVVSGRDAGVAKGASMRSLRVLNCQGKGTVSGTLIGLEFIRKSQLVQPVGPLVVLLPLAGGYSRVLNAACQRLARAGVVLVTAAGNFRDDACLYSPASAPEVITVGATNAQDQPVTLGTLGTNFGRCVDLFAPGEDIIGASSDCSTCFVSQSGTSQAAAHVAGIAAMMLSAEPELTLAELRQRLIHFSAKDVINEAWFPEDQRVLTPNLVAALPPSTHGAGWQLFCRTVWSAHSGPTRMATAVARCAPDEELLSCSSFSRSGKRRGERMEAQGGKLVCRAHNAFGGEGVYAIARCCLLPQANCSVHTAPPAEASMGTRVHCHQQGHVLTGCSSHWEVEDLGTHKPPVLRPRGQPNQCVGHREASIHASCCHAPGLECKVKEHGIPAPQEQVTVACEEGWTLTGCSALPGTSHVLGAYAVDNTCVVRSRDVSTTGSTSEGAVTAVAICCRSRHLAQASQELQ
UniProt P68402: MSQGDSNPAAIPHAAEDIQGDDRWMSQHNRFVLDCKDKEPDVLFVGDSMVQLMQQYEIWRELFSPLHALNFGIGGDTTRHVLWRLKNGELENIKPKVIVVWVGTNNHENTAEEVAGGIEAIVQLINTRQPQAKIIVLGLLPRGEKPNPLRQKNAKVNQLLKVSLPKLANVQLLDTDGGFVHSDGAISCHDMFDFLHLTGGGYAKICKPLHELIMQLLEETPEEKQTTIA
UniProt Q15121, whole entry, looked up: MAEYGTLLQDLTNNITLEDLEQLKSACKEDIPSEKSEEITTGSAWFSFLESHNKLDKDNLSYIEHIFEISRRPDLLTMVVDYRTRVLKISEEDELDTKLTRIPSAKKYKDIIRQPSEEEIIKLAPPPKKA
UniProt Q15004: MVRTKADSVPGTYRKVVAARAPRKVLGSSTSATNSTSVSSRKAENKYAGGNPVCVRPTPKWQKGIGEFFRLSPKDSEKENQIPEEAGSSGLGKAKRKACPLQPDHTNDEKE
UniProt Q9NR12, whole entry, looked up: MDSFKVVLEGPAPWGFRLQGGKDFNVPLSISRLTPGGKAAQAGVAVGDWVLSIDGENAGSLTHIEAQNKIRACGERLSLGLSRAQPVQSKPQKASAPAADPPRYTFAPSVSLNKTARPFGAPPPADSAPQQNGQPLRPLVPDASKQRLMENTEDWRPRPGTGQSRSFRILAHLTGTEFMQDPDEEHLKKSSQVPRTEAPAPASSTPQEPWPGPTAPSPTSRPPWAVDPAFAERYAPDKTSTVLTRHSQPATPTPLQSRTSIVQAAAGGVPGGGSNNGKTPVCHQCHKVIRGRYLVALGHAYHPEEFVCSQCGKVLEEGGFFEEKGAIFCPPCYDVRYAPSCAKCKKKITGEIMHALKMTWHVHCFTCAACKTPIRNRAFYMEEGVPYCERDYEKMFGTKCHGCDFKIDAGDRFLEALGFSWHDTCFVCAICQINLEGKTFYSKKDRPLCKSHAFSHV
UniProt P49585: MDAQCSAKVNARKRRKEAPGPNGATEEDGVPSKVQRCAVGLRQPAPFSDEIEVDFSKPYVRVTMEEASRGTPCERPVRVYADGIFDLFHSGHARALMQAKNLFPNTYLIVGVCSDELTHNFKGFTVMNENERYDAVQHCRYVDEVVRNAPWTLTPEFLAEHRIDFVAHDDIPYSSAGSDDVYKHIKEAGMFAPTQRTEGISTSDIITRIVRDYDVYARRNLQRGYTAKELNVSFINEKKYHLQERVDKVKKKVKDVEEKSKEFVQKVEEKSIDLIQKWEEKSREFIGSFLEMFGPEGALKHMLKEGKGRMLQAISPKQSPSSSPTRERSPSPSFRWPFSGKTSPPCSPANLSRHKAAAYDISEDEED
UniProt Q96RD7, whole entry, looked up: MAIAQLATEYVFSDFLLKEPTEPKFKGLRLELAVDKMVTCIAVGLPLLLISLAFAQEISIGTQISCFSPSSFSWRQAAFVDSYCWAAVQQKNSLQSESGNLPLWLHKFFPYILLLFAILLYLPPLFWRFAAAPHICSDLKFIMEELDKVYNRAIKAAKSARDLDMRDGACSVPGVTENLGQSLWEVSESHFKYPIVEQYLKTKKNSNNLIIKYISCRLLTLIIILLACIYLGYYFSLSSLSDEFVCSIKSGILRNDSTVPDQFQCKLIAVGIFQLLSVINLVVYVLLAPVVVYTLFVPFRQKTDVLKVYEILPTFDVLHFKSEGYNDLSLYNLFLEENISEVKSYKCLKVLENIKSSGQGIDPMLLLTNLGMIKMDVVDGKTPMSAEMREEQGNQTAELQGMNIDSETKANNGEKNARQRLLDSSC
UniProt Q9UBV8: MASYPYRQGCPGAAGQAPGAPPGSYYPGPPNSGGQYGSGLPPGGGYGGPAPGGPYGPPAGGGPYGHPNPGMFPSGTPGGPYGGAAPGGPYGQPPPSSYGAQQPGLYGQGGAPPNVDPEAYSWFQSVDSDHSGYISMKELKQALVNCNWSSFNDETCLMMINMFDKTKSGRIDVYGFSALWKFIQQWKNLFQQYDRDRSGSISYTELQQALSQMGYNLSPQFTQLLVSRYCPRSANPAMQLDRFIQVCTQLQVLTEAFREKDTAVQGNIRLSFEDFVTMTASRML
UniProt P11498: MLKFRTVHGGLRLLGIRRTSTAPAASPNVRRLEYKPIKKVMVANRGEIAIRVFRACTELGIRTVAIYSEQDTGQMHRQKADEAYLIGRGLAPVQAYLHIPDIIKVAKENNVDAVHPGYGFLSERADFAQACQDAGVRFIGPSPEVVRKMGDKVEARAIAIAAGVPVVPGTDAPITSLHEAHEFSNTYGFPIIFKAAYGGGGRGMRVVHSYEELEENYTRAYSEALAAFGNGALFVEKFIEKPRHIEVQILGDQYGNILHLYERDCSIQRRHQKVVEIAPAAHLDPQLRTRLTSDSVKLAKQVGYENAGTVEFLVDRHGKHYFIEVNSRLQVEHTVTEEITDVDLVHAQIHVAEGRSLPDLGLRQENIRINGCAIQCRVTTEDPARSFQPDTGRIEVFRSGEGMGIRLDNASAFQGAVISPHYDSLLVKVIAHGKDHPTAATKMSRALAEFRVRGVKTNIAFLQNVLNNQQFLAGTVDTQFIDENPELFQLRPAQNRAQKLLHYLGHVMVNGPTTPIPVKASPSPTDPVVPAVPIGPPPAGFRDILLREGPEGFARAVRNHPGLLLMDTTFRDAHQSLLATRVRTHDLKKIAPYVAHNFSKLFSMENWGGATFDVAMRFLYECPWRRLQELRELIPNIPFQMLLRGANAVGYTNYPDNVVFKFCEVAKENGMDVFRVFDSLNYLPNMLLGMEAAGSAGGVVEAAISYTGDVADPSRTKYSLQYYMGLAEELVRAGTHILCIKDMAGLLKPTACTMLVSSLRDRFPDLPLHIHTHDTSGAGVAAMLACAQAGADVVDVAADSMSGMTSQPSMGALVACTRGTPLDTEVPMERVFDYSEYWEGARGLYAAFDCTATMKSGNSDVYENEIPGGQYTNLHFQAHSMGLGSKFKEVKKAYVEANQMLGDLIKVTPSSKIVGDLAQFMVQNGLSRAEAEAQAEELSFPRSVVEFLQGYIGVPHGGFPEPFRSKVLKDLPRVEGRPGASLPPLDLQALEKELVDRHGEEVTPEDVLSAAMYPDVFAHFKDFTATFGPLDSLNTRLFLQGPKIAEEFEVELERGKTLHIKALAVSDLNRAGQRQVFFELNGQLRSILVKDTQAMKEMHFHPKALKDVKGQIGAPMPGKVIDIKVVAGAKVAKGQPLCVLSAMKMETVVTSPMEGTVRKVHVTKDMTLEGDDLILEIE
UniProt O75381, whole entry, looked up: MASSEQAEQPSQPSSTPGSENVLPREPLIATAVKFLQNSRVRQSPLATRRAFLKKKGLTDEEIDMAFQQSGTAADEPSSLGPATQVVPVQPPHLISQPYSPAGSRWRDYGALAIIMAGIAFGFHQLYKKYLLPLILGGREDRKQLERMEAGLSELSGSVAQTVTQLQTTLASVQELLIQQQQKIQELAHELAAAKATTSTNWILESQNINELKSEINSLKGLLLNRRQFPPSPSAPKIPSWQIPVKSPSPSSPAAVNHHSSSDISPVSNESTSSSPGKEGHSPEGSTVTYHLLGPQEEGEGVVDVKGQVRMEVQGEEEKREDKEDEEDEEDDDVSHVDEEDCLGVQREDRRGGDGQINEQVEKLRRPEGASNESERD

How the values were obtained:
Test in all cases: log2 fold change, soluble protein after heating vs DMSO (PISA); higher = thermal stabilisation; K562 cells, 10 uM, 30 min; active = over 0.2 and 3.5 SD of the protein, either way, in both replicates (recomputed)
[1] = compound: CC[C@@H]1C(=O)N(C)c2cnc(Nc3ccc(C(=O)NC4CCN(C)CC4)cc3OC)nc2N1C1CCCC1
In short: (§1)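 K562 cells (2×10^6 cells/mL) were treated with 10 μM compound for 30 min, and aliquots were heated for 3 min over 48°C-58°C. Pooled aliquots were extracted in PBS with 0.5% NP-40 at 4°C, and the supernatant after 21,000xg for 90 min was measured by TMTpro 16plex LC-MS/MS with channel sums equalised. Reported thermal stability, relative to control samples and from duplicates, is a log2 fold change.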

volasertib = compound: CC[C@@H]1C(=O)N(C)c2cnc(Nc3ccc(C(=O)N[C@H]4CC[C@H](N5CCN(CC6CC6)CC5)CC4)cc3OC)nc2N1C(C)C [volasertib]
In short: as §1

[2] = compound: CC[C@H](C)N1C=C(C2=C(C=C(C=C21)C3=CN=C(C=C3)N4CCNCC4)C(=O)NCC5=C(C=C(NC5=O)C)C)C
In short: as §1

epoxomicin = compound: CC[C@H](C)[C@@H](C(=O)N[C@@H]([C@@H](C)O)C(=O)N[C@@H](CC(C)C)C(=O)[C@]1(CO1)C)NC(=O)[C@H]([C@@H](C)CC)N(C)C(=O)C [epoxomicin]
In short: as §1

[3] = compound: CCn1c(C(=O)N(C2CC2)C2CC2)cc2c3c(ncn3C)c(Nc3cc(C)n(C)n3)nc21
In short: as §1

[4] = compound: CCn1cc(-c2ccnc3[nH]c(-c4cccc(CN(C)C)c4)cc23)c(-c2ccc(NC(=O)N(C)C)cc2)n1
In short: as §1

[5] = compound: CN(C)CC(=O)Nc1ccc2[nH]c(=O)c3ccccc3c2c1
In short: as §1

rosiglitazone = compound: CN(CCOC1=CC=C(C=C1)C[C@H]2C(=O)NC(=O)S2)C3=CC=CC=N3 (racemic) [rosiglitazone]
In short: as §1

[6] = compound: CN1C2=C(C3=C1C(=O)N(N=C3)CC4=CC(=CC=C4)N)SC(=C2)S(=O)C
In short: as §1

[7] = compound: CN1CCC(CNc2ccc3ncc(-c4cccc(OC(F)(F)F)c4)n3n2)CC1
In short: as §1

Row | Target | log2 fold change [1] | log2 fold change (volasertib) | log2 fold change [2] | log2 fold change (epoxomicin) | log2 fold change [3] | log2 fold change [4] | log2 fold change [5] | log2 fold change (rosiglitazone) | log2 fold change [6] | log2 fold change [7]
1 | PDHA1 isoform 4 (UniProt P08559) | inactive: 0.071 | inactive: 0.182 | inactive: 0.042 | inactive: 0.03 | inactive: -0.001 | inactive: 0 | inactive: -0.032 | inactive: 0.035 | inactive: 0.101 | inactive: 0.019
2 | PDCL3 (UniProt Q9H2J4) | inactive: 0.032 | inactive: -0.018 | inactive: -0.014 | inactive: 0.044 | inactive: 0.01 | inactive: -0.052 | inactive: -0.047 | inactive: 0.003 | inactive: -0.035 | inactive: 0.005
3 | PDRG1 (UniProt Q9NUG6) | inactive: 0.032 | inactive: 0.156 | inactive: 0 | inactive: 0.056 | inactive: 0.043 | inactive: 0.028 | inactive: -0.122 | inactive: 0.042 | inactive: -0.026 | inactive: -0.013
4 | PAFAH1B1 (UniProt P43034) | inactive: 0.012 | inactive: 0.023 | inactive: -0.035 | inactive: -0.032 | inactive: 0.016 | inactive: -0.015 | inactive: 0 | inactive: 0.006 | inactive: -0.063 | inactive: -0.01
5 | PDSS1 (UniProt Q5T2R2) | inactive: 0.013 | inactive: -0.009 | inactive: 0.068 | inactive: 0.215 | inactive: 0.079 | inactive: -0.068 | inactive: 0.023 | inactive: 0.026 | inactive: -0.125 | inactive: -0.122
6 | PEBP1 (UniProt P30086) | inactive: -0.005 | inactive: 0.071 | inactive: -0.031 | inactive: 0.007 | inactive: 0.04 | inactive: 0.005 | inactive: -0.041 | inactive: -0.008 | inactive: -0.037 | inactive: 0.009
7 | PDIA3 (UniProt P30101) | inactive: -0.04 | inactive: 0.052 | inactive: 0.039 | inactive: -0.034 | inactive: 0.056 | inactive: 0.039 | inactive: -0.03 | inactive: -0.007 | inactive: 0.045 | inactive: 0.139
8 | PAXIP1 (UniProt Q6ZW49) | inactive: 0.106 | inactive: -0.164 | inactive: 0.062 | inactive: -0.13 | inactive: 0.092 | inactive: -0.07 | inactive: -0.09 | inactive: 0.148 | inactive: 0.01 | inactive: 0.007
9 | PABPC4 isoform 3 (UniProt Q13310) | inactive: 0.092 | inactive: 0.029 | inactive: 0.062 | inactive: -0.098 | inactive: 0.061 | inactive: 0.056 | inactive: -0.007 | inactive: -0.036 | inactive: 0.104 | inactive: -0.022
10 | PEX11B (UniProt O96011) | inactive: 0.071 | inactive: -0.018 | inactive: -0.038 | inactive: -0.013 |  | inactive: 0.04 | inactive: 0.064 |  | inactive: -0.085 | inactive: 0.239
11 | PCGF2 (UniProt P35227) | inactive: -0.131 | inactive: -0.089 | inactive: 0.012 | inactive: -0.005 |  | inactive: -0.02 | inactive: -0.03 |  | inactive: -0.071 | active: -0.282
12 | PARP16 isoform 3 (UniProt Q8N5Y8) | inactive: 0.103 | inactive: -0.025 | inactive: 0.067 | inactive: 0.029 |  | active: -0.252 | inactive: 0.061 |  | inactive: -0.008 | inactive: 0.096
13 | PAIP1 (UniProt Q9H074) | inactive: 0.048 | inactive: -0.097 | inactive: 0.046 | inactive: 0.012 | inactive: 0.048 | inactive: -0.04 | inactive: -0.02 | inactive: 0 | inactive: -0.066 | inactive: -0.046
14 | PCTP (UniProt Q9UKL6) | inactive: -0.017 | inactive: -0.012 | inactive: -0.067 | inactive: 0.039 |  | inactive: -0.055 | inactive: -0.005 |  | inactive: -0.011 | active: -0.279
15 | PANK3 (UniProt Q9H999) | inactive: 0.101 | inactive: -0.001 | inactive: -0.135 | inactive: 0.048 | inactive: -0.016 | inactive: -0.05 |  | inactive: 0.054 | inactive: 0.009 | inactive: 0.014
16 | PELO (UniProt Q9BRX2) | inactive: -0.017 | inactive: -0.387 | inactive: 0.09 | inactive: -0.058 |  | inactive: 0.007 | inactive: -0.017 |  | inactive: 0.138 | inactive: -0.312
17 | PCSK9 (UniProt Q8NBP7) | inactive: -0.049 | inactive: -0.117 | inactive: 0.015 | inactive: -0.054 | inactive: -0.008 | inactive: 0.079 | inactive: 0.03 | inactive: -0.004 |  | inactive: 0.097

Row | Target | log2 fold change [1] | log2 fold change (volasertib) | log2 fold change [2] | log2 fold change (epoxomicin) | log2 fold change [3] | log2 fold change [4] | log2 fold change [5] | log2 fold change (rosiglitazone) | log2 fold change [6] | log2 fold change [7]
18 | PAFAH1B2 (UniProt P68402) | inactive: 0.002 | inactive: 0.064 | inactive: 0.036 | inactive: 0.102 |  | inactive: -0.087 | inactive: -0.009 |  | inactive: -0.037 | inactive: -0.016
19 | PELP1 (UniProt Q8IZL8) | inactive: 0.056 | inactive: 0.017 | inactive: -0.002 | inactive: -0.004 |  | inactive: 0.047 | inactive: -0.009 |  | inactive: 0.006 | inactive: 0.021
20 | PBK (UniProt Q96KB5) | inactive: -0.18 | active: -0.601 | inactive: 0.121 | inactive: -0.005 |  | inactive: -0.026 | inactive: 0.091 |  | inactive: 0.053 | inactive: -0.187
21 | PCCB isoform 2 (UniProt P05166) | inactive: 0.094 | inactive: 0.121 | inactive: 0 | inactive: 0.044 | inactive: -0.067 | inactive: -0.02 | inactive: -0.036 | inactive: 0.007 | inactive: -0.089 | inactive: 0.029
22 | PEA15 isoform 2 (UniProt Q15121) | inactive: -0.078 | inactive: -0.162 | inactive: -0.018 | inactive: 0 |  | inactive: 0.022 | inactive: 0.004 |  | inactive: -0.002 | inactive: 0.039
23 | PET100 (UniProt P0DJ07) | inactive: 0.057 | inactive: -0.067 | inactive: 0.001 | inactive: -0.071 | inactive: -0.03 | inactive: 0.015 | inactive: 0.004 | inactive: 0.022 | inactive: -0.087 | inactive: 0.063
24 | PDCD2L (UniProt Q9BRP1) | inactive: -0.201 | active: -0.435 | inactive: 0.017 | inactive: 0.07 |  | inactive: -0.171 | inactive: 0.038 |  | inactive: -0.038 | inactive: -0.073
25 | PDZD8 (UniProt Q8NEN9) | inactive: -0.019 | inactive: -0.064 | inactive: 0.021 | inactive: 0.013 | inactive: -0.013 | inactive: 0.036 | inactive: 0.023 | inactive: 0.062 | inactive: -0.036 | inactive: -0.051
26 | PCLAF (UniProt Q15004) | inactive: 0.085 | inactive: 0.124 | inactive: -0.046 | inactive: 0.185 |  | inactive: 0.035 | inactive: -0.087 |  | inactive: 0.001 | inactive: 0.015
27 | PDLIM7 (UniProt Q9NR12) | inactive: -0.084 | active: -0.24 | inactive: 0.012 | inactive: 0.013 |  | inactive: -0.064 | inactive: 0.039 |  | inactive: 0.023 | inactive: -0.021
28 | PCYT1A (UniProt P49585) | inactive: -0.219 | active: -0.332 | inactive: 0.042 | inactive: 0.028 |  | inactive: -0.019 | inactive: 0.017 |  | inactive: -0.022 | inactive: -0.111
29 | PANX1 (UniProt Q96RD7) | inactive: 0.013 | inactive: -0.142 | inactive: -0.035 | inactive: -0.04 | inactive: 0.008 | inactive: -0.052 | inactive: -0.033 | inactive: 0.006 | inactive: 0.01 | inactive: 0.177
30 | PEF1 (UniProt Q9UBV8) | inactive: -0.144 | active: -0.329 | inactive: 0.035 | inactive: 0.101 |  | inactive: 0.002 | inactive: -0.061 |  | inactive: -0.005 | inactive: 0.048
31 | PDCD4 (UniProt Q53EL6) | inactive: -0.26 | active: -0.585 | inactive: -0.013 | inactive: 0.055 |  | inactive: -0.053 | inactive: 0.065 |  | inactive: -0.107 | inactive: 0.011
32 | PC (UniProt P11498) | inactive: -0.041 | inactive: -0.069 | inactive: 0.067 | inactive: 0.041 |  | inactive: -0.217 | inactive: 0.027 |  | inactive: -0.128 | inactive: 0.03
33 | PEX14 (UniProt O75381) | inactive: 0.003 | inactive: 0.004 | inactive: -0.007 | inactive: 0.042 | inactive: -0.02 | inactive: -0.001 | inactive: -0.008 | inactive: 0.007 | inactive: -0.017 | inactive: 0.056

Look-ups from the list:
For log2 fold change (epoxomicin), PELP1 (UniProt Q8IZL8) has inactive: -0.004
For log2 fold change [1], PANX1 (UniProt Q96RD7) has inactive: 0.013

Some of the entries above, reformatted.
Row	Target	log2 fold change [1]	log2 fold change (volasertib)	log2 fold change [2]	log2 fold change (epoxomicin)	log2 fold change [3]	log2 fold change [4]	log2 fold change [5]	log2 fold change (rosiglitazone)	log2 fold change [6]	log2 fold change [7]
23	PET100 (UniProt P0DJ07)	inactive: 0.057	inactive: -0.067	inactive: 0.001	inactive: -0.071	inactive: -0.03	inactive: 0.015	inactive: 0.004	inactive: 0.022	inactive: -0.087	inactive: 0.063
24	PDCD2L (UniProt Q9BRP1)	inactive: -0.201	active: -0.435	inactive: 0.017	inactive: 0.07		inactive: -0.171	inactive: 0.038		inactive: -0.038	inactive: -0.073
